The other results are listed elsewhere or left out.

The chains behind the UniProt entries cited, without tags or fusion partners.
UniProt Q0JBA9, entry or part of it: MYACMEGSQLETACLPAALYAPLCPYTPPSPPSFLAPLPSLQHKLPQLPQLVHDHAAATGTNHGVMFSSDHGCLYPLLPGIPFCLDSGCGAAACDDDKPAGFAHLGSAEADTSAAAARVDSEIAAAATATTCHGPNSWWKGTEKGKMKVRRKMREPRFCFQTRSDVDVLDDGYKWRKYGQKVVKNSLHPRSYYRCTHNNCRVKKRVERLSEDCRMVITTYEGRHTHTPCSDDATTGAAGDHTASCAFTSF

The assay concerns the target OsWRKY34 (Oryza sativa, UniProt Q0JBA9 1-250). The assay is described as follows: protein-binding microarray (RPBM); PBS, 2% BSA, 51.3 ng/ul salmon testes DNA, 50 uM zinc acetate, 200 nM TF, 25 C, 1 h; high values mean tight binding. To be noted: protein: recombinant; tags: N-terminal polyhistidine and DsRed monomer fusion (pET32a); label: CyDye5-dUTP incorporated in the synthesized complementary strand; 3' TTTTT single-stranded linker to array surface; dsDNA, one strand shown. The method in brief:
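Transcription factors were made in E. coli BL21-CodonPlus as N-terminal fusions to a polyhistidine tag and DsRed, then purified on Ni–NTA. After primer extension with Cy5-dUTP and blocking with 2% BSA, a custom Agilent array was exposed for 1 h at 25 °C to 200 nM protein in PBS, 2% BSA, salmon testes DNA and 50 µM zinc acetate. Washed arrays were scanned on an Axon 4000B, and the binding signal is per-feature fluorescence intensity in arbitrary units.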
Take “GTACGGGTATAATGTTTGCTTATGCAATTACTCTATGTCACGGAGTCACCTAGTGCAG”: the binding signal is 8500 fluorescence intensity (a.u.).

For “TACTACTACTTTCCCACCCTGCCCTCACTACCTACCCACCCGGAGTCACCTAGTGCAG”, the binding signal is 8300 fluorescence intensity (a.u.).

As to “CCGCTTGCTGCTGACTCGTCGAAAGCCATCTCCACTGATTCGGAGTCACCTAGTGCAG”, the binding signal is 9000 fluorescence intensity (a.u.).

In the case of “GGCCGTCTGTAAATTTCTCCTCCCTCGATGCCGATTATTACGGAGTCACCTAGTGCAG”, the binding signal is 8490 fluorescence intensity (a.u.).

Consider “ACCGGCCAATAACAAACTCCTACTGACCAGTGTTATCCATCGGAGTCACCTAGTGCAG”, for which the binding signal was 8380 fluorescence intensity (a.u.).

“ATCTCGGCTGTGTTTCGTTGTTGGCCTAGTGGTGGTCGGTCGGAGTCACCTAGTGCAG”: the binding signal was 9410 fluorescence intensity (a.u.).

In the case of “CTTCTCCAGCTCAGGTCACCACCTCCCTTGCTCTCTTCTTCGGAGTCACCTAGTGCAG”, the binding signal is 9740 fluorescence intensity (a.u.).

Turning to “CAATTCTCCATCCAGGTGCCACTCAAAGCTCACACATCGCCGGAGTCACCTAGTGCAG”, the binding signal was 8790 fluorescence intensity (a.u.).

For the sequence “CGAACCTGTCTACATCGCCCGTGTCTTGTGCGTTTGCTCTCGGAGTCACCTAGTGCAG”, the binding signal was 13000 fluorescence intensity (a.u.).

Regarding “CCCTCTCCTCTCCCTGTTTCTCCTCATCCCTGCTTCCTCTCGGAGTCACCTAGTGCAG”, the binding signal was 9110 fluorescence intensity (a.u.).

With “GCCTTTTTAACTTGTGCGACCGGTGTTCCGGGATTTTGGGCGGAGTCACCTAGTGCAG”, the binding signal is 10900 fluorescence intensity (a.u.).

Turning to “GCCGTTTTTCTACTCCTTTCGTAGTTATATTTTAGGACAACGGAGTCACCTAGTGCAG”, the binding signal was 9940 fluorescence intensity (a.u.).

With “TGACATGTTCACCTTCATCGGGCTCCTCGAGTTCTTCTACCGGAGTCACCTAGTGCAG”, the binding signal is 8730 fluorescence intensity (a.u.).

Turning to “CTTGATGTTATTGTTTTTCATTTTATCTACTTTAAATATACGGAGTCACCTAGTGCAG”, the binding signal is 8260 fluorescence intensity (a.u.).

On to “TCACAGGCCATCTCTCTATCCCTAATTAAGCTATATACTCCGGAGTCACCTAGTGCAG”, for which the binding signal is 8820 fluorescence intensity (a.u.).

“CGAACCACCCTGCGCTCTTGTCCTCGTTTGATAGTGTCGTCGGAGTCACCTAGTGCAG”: the binding signal is 10200 fluorescence intensity (a.u.).

“AACCGTTTAGGATAGCTCATCTTTTTCTTGGGCCTGATTACGGAGTCACCTAGTGCAG”: the binding signal was 10500 fluorescence intensity (a.u.).

Consider “CTTACTAACCTCCTGCTTGTCTTGTCCACTCCAGTCCACACGGAGTCACCTAGTGCAG”, for which the binding signal is 8290 fluorescence intensity (a.u.).

In the case of “GCCTCGATCTCCTCCCCACCGCGCATCGCTCCTCTCCCCTCGGAGTCACCTAGTGCAG”, the binding signal is 13500 fluorescence intensity (a.u.).

In the case of “TGTTTAATTTCATTACTTATTTTTTTTCATTGCATTATAACGGAGTCACCTAGTGCAG”, the binding signal is 8990 fluorescence intensity (a.u.).

For “GCCCAGCTTGCGCACGGGGAGGGGAGGGGAGAATGGGCCGCGGAGTCACCTAGTGCAG”, the binding signal was 11000 fluorescence intensity (a.u.).

On to “ACCTTGGAAGCAAGCAACTCCATCGATCGCCTATAAATTCCGGAGTCACCTAGTGCAG”, for which the binding signal is 8840 fluorescence intensity (a.u.).

Turning to “TTGTGCCACTTCATTCATTGCTACCCCTAATTCTAGGCACCGGAGTCACCTAGTGCAG”, the binding signal was 8430 fluorescence intensity (a.u.).

On to “CCTGCACGCTCCTCCATATTCCGCTGCCGTCGACGATACTCGGAGTCACCTAGTGCAG”, for which the binding signal is 12100 fluorescence intensity (a.u.).

Turning to “TCCTGCGATCCTGACCTGTAAAAACGCTGTTGTACCAGCTCGGAGTCACCTAGTGCAG”, the binding signal is 8850 fluorescence intensity (a.u.).

Regarding “CACGTTGTTGCTTGTTGCCATTATCACGCGTAGTTTATTCCGGAGTCACCTAGTGCAG”, the binding signal was 8500 fluorescence intensity (a.u.).

Turning to “TTCCTATCATGTGTTTCAAAACAATCATGATTTCATTAGCCGGAGTCACCTAGTGCAG”, the binding signal was 8060 fluorescence intensity (a.u.).

In the case of “ATCTCCCACCCCACAACCTCGCCATCTCCGCCTCTCCTCGCGGAGTCACCTAGTGCAG”, the binding signal was 9600 fluorescence intensity (a.u.).

Regarding “TAAGCTAGCGACTCGTTCCTCTTCTCATTTTCTTTTTTTACGGAGTCACCTAGTGCAG”, the binding signal was 9470 fluorescence intensity (a.u.).

Consider “CCGATATTTAGGTTCGGTCCTTTGATTTTCGTTTTGTTTTCGGAGTCACCTAGTGCAG”, for which the binding signal was 10300 fluorescence intensity (a.u.).

Take “ACTTGATGCATTTACTGGTAGCTTGGTTTGCTGATATTTTCGGAGTCACCTAGTGCAG”: the binding signal was 12500 fluorescence intensity (a.u.).

With “CACCGCCCTGGACCGCCGCCGCCTCCTCGCCGCCATCGAACGGAGTCACCTAGTGCAG”, the binding signal was 9000 fluorescence intensity (a.u.).

As to “TTGAACTTTTATATATTTGTTCGTACTGACTTAAAAGTTACGGAGTCACCTAGTGCAG”, the binding signal was 8170 fluorescence intensity (a.u.).

As to “TCCCACTCCTCGATCCAATCCTCGCCGTCCATCCTTCCCTCGGAGTCACCTAGTGCAG”, the binding signal is 8130 fluorescence intensity (a.u.).

Consider “GCGGCGAAGCAGGGAGGAGGGAGGAGGAGGGGCGGCGGTGCGGAGTCACCTAGTGCAG”, for which the binding signal was 12100 fluorescence intensity (a.u.).

In the case of “ACGAATGGTCAAACATGTGAGGAAAAGTCAACGGCGTCATCGGAGTCACCTAGTGCAG”, the binding signal was 13400 fluorescence intensity (a.u.).

Consider “CTACAAATTTTATTTTTTTTCTTTTTGCAAGGATTTCTTTCGGAGTCACCTAGTGCAG”, for which the binding signal was 8900 fluorescence intensity (a.u.).

For “ACTCCATTTATTCGCTGAGCAAATTTCCAGCCTTTTTTGCCGGAGTCACCTAGTGCAG”, the binding signal is 8110 fluorescence intensity (a.u.).

Turning to “GATACTACACGTCTCTGCACACGCGTCAGCAAGCTCCTGTCGGAGTCACCTAGTGCAG”, the binding signal was 8350 fluorescence intensity (a.u.).

On to “CACCAATCCACCCTTAATTATCGTTTGCATGAGATAGTTTCGGAGTCACCTAGTGCAG”, for which the binding signal is 8640 fluorescence intensity (a.u.).

On to “TCAGCTATTACACGACAATACACGCTTCGGAGAATTTCCGCGGAGTCACCTAGTGCAG”, for which the binding signal is 9700 fluorescence intensity (a.u.).

As for “CCAAATTTTATTATTTTTGGTCACGTCGCGGCATGCATCTCGGAGTCACCTAGTGCAG”, the binding signal was 9330 fluorescence intensity (a.u.).
